# Experimental data as given in the supplement of paper PMC4604168 (melanoma cell lines).
# The other results are listed elsewhere or left out. Repeats are few or missing, and single values can be far off.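 The apoptosis fraction was the count of cleaved-PARP antibody-stained nuclei relative to all DNA-stained nuclei, imaged in 1,536-well plates. Screening doses were set so most cells survived, and baseline and induced cleaved-PARP levels vary greatly across cell lines.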
# Key:
# Experiment in all cases: cleaved PARP positive nuclei fraction relative to DMSO control; melanoma cells; higher = more apoptosis
# Settings in all cases: library dose: low library concentration; 72 h
# 501Mel = system: 501Mel
# A101D = system: A101D
# A2058 = system: A2058
# C32 = system: C32
# CBRC008 = system: CBRC008 (line from a melanoma biopsy)
# CBRC014 = system: CBRC014 (line from a melanoma biopsy)
# CBRC016 = system: CBRC016 (line from a melanoma biopsy)
# CBRC017 = system: CBRC017 (line from a melanoma biopsy)
# A375 = system: A375
# CBRC013 = system: CBRC013 (line from a melanoma biopsy)
Compound,cleaved PARP positive nuclei fraction (501Mel) [%],cleaved PARP positive nuclei fraction (A101D) [%],cleaved PARP positive nuclei fraction (A2058) [%],cleaved PARP positive nuclei fraction (C32) [%],cleaved PARP positive nuclei fraction (CBRC008) [%],cleaved PARP positive nuclei fraction (CBRC014) [%],cleaved PARP positive nuclei fraction (CBRC016) [%],cleaved PARP positive nuclei fraction (CBRC017) [%],cleaved PARP positive nuclei fraction (A375) [%],cleaved PARP positive nuclei fraction (CBRC013) [%]
"N#CC[C@H](C1CCCC1)n1cc(-c2ncnc3[nH]ccc23)cn1 [ruxolitinib] + COc1ccc(COc2ccc(Cc3cnc(N)nc3N)cc2OC)cc1 [GW2580] (first compound 1 µM, partner dose 1 µM)",176,24.5,67.8,87.5,81.5,84,74.1,119,–,–
"N#CC[C@H](C1CCCC1)n1cc(-c2ncnc3[nH]ccc23)cn1 [ruxolitinib] + O=C(O)C(=O)Nc1sc2c(c1C(=O)O)CCNC2 [TCS401] (first compound 1 µM, partner dose 1.66667 µM)",70.8,23.5,72.3,31,367,225,143,112,–,–
"O=c1[nH]nc(Sc2ncc([N+](=O)[O-])s2)n1-c1ccc2c(c1)OCCO2 + O=c1cc(-c2cccc3c2Sc2ccccc2S3)oc(N2CCOCC2)c1 [KU55933] (first compound 0.2 µM, partner dose 1 µM)",153,16.1,91.3,158,257,105,77,146,–,–
"Cc1ccc(Nc2nccc(N(C)c3ccc4c(C)n(C)nc4c3)n2)cc1S(N)(=O)=O [Pazopanib] + Cc1cc([N+](=O)[O-])ccc1NS(=O)(=O)c1cc(Cl)ccc1Cl [FH535] (first compound 0.4 µM, partner dose 1 µM)",144,34.2,22.5,141,570,122,1120,142,–,–
"O=C(Nc1cc(C(F)(F)F)cc(C(F)(F)F)c1)c1cc(Cl)ccc1O + COc1ccc(-c2ccc3c(N4CCOCC4)nc(N4C[C@@H](C)O[C@@H](C)C4)nc3n2)cc1CO [KU0063794] (first compound 0.016 µM, partner dose 0.02 µM)",70.6,8,68.8,28,57.3,98.5,52.7,121,–,–
"Cc1cn(-c2cc(NC(=O)c3ccc(C)c(Nc4nccc(-c5cccnc5)n4)c3)cc(C(F)(F)F)c2)cn1 [nilotinib] + Cc1cc([N+](=O)[O-])ccc1NS(=O)(=O)c1cc(Cl)ccc1Cl [FH535] (first compound 0.2 µM, partner dose 1 µM)",61.2,34.2,94.5,77.1,249,111,326,176,–,–
"Cc1cn(-c2cc(NC(=O)c3ccc(C)c(Nc4nccc(-c5cccnc5)n4)c3)cc(C(F)(F)F)c2)cn1 [nilotinib] + Cn1cc(/C=C2\C(=O)Nc3cccnc32)c2ccccc21 [GW441756] (first compound 0.2 µM, partner dose 0.4 µM)",72,53.4,57,164,49.5,109,45,73.3,–,–
"COc1cc([C@@H]2c3cc4c(cc3[C@@H](O[C@@H]3O[C@@H]5CO[C@@H](C)O[C@H]5[C@H](O)[C@H]3O)[C@H]3COC(=O)[C@H]23)OCO4)cc(OC)c1O [etoposide] + O=C(O)C(=O)Nc1sc2c(c1C(=O)O)CCNC2 [TCS401] (first compound 0.02 µM, partner dose 1.66667 µM)",65.4,7.26,20.6,6.33,–,78.1,77.6,75.3,–,–
"N#CC[C@H](C1CCCC1)n1cc(-c2ncnc3[nH]ccc23)cn1 [ruxolitinib] + C=CCn1c(=O)c2cnc(Nc3ccc(N4CCN(C)CC4)cc3)nc2n1-c1cccc(C(C)(C)O)n1 [MK1775] (first compound 1 µM, partner dose 0.02 µM)",–,93.3,53.6,125,62.2,83.5,60,114,129,145
